Where a chain is given by its changes, count along the chain named. Results are given in words; binding and its absence hold for the method and conditions named. Some entries that bind do so weakly or less than the wild type.
B1: ADI-27740 (antibody, V domains shown)
VH: QVQLQQWGAGLLKPSETLSLTCAVYGGSFSGYYWSWIRQPPGKGLEWIGEIDHSGSTNYNPSLKSRVTISVDTSKNQFSLKLSSVTAADTAVYYCARARGPWSFDPWGQGTLVTVSS
VL: DIQMTQSPSTLSASVGDRVTITCRASQSIGSWLAWYQQKPGKAPKLLIYKASSLESGVPSRFSGSGSGTEFTLTISSLQPDDFATYYCQQYHSFYTFGGGTKVEIK
B2: ADI-27741 (antibody, V domains shown)
VH: B1 VH
VL: B1 VL with Y91S, H92N, F94Y
B3: ADI-28226 (antibody, V domains shown)
VH: B1 VH
VL: DIQMTQSPSTLSASVGDRVTITCRASQSISSWLAWYQQKPGKAPKLLIYKASSLESGVPSRFSGSGSGTEFTLTISSLQPDDFATYYCQQYGSFPITFGGGTKVEIK

Protein sequences, listed by entry. Tags and fused reporters are not part of them. Lines headed by an entry give the natural chain unless they say otherwise; changes in a name come on top.
UniProt O54709: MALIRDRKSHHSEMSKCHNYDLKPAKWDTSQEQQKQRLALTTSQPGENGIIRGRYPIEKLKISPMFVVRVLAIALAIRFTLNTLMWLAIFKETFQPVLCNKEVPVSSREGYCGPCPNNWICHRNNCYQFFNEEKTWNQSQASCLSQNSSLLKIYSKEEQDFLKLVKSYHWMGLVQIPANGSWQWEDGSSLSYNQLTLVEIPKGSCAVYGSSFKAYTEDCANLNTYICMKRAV

What follows are binders tested against mouse NKG2D-CD3 zeta chimeric antigen receptor on EL4 cells (mouse) (UniProt O54709) (assay: flow cytometry at 100 nM on EL4 cells expressing mouse NKG2D-CD3 zeta CAR, MFI fold over parental EL4).
With B1 the binding was “binds”. In the case of B2, the binding is reported as “binds”. For B3, the binding was “binds”.
